Test results reported in the supplement of paper PMC10849652.
Some of the results follow.

Sequences of proteins named here, by UniProt entry; tags and fusion partners are left off. A change or cut given only in a name is not applied to a line headed by its entry.
UniProt O60645: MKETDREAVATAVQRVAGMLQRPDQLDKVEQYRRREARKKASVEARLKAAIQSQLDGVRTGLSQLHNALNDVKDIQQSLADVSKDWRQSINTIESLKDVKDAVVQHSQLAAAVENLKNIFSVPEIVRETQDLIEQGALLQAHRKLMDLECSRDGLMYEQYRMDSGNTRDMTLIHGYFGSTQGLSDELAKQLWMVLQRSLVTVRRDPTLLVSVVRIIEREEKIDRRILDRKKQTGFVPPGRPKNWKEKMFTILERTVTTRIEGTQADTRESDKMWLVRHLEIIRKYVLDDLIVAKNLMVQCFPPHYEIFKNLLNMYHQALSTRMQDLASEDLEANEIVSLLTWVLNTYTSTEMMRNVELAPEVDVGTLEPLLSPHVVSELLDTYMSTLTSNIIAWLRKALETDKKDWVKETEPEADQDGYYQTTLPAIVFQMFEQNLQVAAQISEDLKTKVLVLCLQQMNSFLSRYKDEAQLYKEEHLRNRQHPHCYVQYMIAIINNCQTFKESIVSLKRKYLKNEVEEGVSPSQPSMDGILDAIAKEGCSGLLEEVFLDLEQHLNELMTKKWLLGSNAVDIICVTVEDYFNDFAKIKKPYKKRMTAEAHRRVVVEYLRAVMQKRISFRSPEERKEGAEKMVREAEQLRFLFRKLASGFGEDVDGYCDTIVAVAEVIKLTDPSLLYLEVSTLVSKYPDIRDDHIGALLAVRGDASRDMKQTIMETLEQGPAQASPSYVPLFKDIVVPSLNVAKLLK
UniProt Q9Y3B2, whole entry, looked up: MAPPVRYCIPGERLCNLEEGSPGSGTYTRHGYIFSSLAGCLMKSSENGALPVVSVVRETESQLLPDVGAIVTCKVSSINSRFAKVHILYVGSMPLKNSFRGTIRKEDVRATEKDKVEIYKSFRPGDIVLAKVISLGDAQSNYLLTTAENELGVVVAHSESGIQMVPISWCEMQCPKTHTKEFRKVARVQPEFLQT
UniProt Q9NQT4, whole entry, looked up: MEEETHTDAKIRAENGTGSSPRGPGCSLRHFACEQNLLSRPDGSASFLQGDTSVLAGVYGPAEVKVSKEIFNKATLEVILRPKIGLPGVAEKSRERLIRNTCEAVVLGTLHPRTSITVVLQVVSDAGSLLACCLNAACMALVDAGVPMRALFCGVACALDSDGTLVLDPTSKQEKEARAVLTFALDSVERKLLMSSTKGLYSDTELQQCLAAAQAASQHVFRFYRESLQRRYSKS
UniProt Q9Y5Q0: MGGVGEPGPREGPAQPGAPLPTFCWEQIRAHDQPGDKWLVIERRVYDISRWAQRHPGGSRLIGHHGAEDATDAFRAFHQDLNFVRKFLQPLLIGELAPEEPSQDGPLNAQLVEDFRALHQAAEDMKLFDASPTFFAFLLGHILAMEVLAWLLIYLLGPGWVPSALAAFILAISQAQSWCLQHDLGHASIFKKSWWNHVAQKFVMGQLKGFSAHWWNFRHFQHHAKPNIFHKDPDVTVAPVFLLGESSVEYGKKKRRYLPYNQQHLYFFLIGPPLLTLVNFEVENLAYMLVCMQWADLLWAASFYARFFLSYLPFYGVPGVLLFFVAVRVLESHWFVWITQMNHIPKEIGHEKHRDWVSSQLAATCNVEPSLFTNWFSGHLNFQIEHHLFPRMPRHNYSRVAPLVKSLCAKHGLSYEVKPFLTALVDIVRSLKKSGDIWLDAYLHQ
UniProt Q9Y624, whole entry, looked up, stated change not applied: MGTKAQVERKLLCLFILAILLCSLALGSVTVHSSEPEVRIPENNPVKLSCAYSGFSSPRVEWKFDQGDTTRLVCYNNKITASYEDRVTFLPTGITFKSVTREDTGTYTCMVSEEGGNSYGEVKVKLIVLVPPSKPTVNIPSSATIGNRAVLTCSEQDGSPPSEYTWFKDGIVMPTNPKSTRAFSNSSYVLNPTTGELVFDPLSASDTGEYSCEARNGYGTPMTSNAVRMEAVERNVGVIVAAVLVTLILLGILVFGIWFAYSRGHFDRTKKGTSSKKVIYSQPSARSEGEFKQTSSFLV
UniProt Q9UI08, whole entry, looked up: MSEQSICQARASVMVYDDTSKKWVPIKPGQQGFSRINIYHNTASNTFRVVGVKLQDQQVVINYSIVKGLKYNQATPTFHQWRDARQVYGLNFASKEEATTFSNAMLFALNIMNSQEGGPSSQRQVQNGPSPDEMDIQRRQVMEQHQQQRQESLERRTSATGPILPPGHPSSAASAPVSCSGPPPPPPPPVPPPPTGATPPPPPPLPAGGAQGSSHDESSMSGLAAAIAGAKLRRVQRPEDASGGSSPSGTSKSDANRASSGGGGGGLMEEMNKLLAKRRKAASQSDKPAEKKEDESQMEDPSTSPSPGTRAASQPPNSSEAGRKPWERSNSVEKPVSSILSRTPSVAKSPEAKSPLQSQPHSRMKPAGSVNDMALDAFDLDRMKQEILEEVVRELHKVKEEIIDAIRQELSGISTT
UniProt O75477: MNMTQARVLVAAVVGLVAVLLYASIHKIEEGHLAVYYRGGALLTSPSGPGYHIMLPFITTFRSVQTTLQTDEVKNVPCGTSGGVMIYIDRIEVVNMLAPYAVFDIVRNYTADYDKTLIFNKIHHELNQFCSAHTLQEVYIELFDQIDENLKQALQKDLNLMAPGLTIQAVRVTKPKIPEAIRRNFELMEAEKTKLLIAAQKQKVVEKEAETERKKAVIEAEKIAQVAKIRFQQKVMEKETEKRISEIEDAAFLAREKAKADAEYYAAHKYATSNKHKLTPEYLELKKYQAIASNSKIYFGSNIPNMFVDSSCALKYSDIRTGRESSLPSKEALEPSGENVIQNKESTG
UniProt Q96KR6: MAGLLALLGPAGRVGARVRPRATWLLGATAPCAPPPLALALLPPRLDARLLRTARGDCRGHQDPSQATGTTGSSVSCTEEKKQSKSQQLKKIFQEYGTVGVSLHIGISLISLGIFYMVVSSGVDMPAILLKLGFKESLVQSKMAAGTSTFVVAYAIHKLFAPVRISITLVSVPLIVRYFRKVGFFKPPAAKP
UniProt P15311, whole entry, looked up: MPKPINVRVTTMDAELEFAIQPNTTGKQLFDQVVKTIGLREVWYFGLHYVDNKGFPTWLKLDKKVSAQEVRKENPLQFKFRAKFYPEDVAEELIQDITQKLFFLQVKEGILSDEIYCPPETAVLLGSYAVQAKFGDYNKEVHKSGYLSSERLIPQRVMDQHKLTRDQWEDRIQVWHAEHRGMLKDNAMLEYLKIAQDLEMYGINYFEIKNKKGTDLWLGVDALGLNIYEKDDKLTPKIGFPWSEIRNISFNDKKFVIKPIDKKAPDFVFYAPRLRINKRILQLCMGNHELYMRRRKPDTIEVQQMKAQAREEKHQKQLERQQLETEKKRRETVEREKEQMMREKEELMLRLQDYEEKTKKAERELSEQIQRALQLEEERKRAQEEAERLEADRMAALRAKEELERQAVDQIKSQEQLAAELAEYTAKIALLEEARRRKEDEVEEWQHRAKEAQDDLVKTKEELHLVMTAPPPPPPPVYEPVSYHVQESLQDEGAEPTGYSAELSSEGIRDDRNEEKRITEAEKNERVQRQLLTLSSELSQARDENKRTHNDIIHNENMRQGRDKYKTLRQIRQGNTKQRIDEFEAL
UniProt Q9Y421: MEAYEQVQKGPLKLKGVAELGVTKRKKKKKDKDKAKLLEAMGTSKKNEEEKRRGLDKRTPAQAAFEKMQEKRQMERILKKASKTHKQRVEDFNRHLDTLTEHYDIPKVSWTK
UniProt Q9NVQ4: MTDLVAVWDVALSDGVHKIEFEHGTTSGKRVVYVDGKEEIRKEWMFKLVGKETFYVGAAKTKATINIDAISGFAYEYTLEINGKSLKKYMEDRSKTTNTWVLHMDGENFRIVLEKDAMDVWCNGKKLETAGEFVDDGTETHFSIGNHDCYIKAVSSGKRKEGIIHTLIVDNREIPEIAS
UniProt Q9H4H8: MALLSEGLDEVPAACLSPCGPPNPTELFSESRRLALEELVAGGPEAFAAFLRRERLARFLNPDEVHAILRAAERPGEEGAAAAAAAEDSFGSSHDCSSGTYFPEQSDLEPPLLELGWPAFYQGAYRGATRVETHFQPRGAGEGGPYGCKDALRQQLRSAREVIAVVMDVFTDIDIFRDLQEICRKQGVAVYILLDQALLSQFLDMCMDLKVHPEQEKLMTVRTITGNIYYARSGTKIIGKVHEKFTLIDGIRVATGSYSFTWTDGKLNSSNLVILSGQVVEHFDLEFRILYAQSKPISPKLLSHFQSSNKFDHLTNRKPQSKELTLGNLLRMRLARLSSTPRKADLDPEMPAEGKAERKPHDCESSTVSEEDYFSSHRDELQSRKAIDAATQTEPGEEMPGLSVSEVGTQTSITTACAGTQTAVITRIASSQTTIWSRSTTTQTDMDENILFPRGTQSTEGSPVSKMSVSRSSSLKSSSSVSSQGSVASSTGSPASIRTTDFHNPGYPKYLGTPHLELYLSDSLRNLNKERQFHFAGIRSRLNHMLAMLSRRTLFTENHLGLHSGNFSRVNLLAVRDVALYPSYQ
UniProt P12259: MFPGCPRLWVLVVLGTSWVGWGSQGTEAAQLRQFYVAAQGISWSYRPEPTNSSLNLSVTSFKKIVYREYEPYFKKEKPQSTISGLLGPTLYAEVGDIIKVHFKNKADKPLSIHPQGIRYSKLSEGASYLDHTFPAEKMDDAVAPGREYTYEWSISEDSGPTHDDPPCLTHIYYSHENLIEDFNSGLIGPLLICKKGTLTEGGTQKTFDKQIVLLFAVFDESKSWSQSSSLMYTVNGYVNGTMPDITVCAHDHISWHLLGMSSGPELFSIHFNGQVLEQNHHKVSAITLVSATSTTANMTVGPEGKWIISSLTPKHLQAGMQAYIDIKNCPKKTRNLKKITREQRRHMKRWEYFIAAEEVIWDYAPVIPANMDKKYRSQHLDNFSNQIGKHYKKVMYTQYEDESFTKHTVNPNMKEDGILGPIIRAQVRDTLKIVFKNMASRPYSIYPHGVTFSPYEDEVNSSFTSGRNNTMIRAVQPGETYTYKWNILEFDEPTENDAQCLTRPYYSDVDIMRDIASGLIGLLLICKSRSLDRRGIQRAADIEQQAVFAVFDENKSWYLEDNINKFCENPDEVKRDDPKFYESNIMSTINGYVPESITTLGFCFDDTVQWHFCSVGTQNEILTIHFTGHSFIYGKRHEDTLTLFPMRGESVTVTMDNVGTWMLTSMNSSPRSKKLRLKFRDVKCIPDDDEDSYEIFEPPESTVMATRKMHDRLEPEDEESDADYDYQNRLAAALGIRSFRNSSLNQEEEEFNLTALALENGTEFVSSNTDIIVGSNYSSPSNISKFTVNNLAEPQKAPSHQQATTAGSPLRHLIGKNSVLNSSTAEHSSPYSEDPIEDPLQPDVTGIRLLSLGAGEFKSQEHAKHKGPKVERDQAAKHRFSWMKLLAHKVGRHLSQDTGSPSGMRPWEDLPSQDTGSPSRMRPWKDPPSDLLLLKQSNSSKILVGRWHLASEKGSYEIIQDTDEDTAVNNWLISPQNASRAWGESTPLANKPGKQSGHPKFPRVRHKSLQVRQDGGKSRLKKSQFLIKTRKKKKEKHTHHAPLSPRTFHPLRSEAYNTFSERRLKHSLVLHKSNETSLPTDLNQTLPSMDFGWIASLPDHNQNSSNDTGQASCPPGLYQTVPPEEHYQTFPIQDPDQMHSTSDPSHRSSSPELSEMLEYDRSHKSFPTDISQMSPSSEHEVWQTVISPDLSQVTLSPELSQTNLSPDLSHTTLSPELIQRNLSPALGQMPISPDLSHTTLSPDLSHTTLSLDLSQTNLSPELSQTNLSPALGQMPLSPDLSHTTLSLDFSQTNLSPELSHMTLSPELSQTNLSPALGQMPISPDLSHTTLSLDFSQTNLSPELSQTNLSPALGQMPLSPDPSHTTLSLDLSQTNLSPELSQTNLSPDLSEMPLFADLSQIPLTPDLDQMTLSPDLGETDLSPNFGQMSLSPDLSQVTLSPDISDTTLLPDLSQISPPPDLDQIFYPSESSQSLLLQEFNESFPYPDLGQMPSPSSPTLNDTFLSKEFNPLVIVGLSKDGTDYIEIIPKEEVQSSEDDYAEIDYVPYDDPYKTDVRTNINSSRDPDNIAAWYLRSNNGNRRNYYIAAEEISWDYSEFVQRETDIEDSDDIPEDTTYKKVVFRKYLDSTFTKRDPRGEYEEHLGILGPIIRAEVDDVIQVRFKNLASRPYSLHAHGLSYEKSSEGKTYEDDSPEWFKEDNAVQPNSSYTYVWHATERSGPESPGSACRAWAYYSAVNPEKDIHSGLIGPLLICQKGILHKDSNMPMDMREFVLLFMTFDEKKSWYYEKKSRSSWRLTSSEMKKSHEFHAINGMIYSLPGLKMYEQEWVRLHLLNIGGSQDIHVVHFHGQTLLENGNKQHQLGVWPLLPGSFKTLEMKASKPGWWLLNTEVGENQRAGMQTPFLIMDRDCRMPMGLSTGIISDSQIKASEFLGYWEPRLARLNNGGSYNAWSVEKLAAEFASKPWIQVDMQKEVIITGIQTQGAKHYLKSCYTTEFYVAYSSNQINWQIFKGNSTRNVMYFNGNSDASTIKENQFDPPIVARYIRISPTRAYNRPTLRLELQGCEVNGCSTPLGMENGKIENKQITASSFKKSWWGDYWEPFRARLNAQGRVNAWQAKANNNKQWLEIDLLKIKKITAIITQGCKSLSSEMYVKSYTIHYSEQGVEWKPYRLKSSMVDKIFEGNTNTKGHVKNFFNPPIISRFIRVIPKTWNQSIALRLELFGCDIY

Assays:
Experiment in all cases: log2 fold change, soluble protein after heating vs DMSO (PISA); higher = thermal stabilisation; K562 lysate, 10 uM; active = over 0.2 and 3.5 SD of the protein, either way, in both replicates (recomputed)
vemurafenib = compound: CCCS(=O)(=O)Nc1ccc(F)c(C(=O)c2c[nH]c3ncc(-c4ccc(Cl)cc4)cc23)c1F [vemurafenib]
Outline: (§1)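 Dounce homogenisation of K562 pellets in PBS pH 7.4 with 1 mM MgCl2 produced a crude extract, used at 1 mg/mL protein. Exposure to 10 μM compound lasted 30 min, and aliquots were then heated for 3 min across 48°C-58°C, pooled and brought to 0.5% NP-40 at 4°C. The supernatant after 21,000xg for 90 min was quantified by TMTpro 16plex LC-MS/MS with channel sums equalised. Duplicate values are given as log-two fold change in thermal stability relative to solvent controls.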

[1] = compound: CCCS(=O)(=O)Nc1ccc(F)c(C(=O)c2c[nH]c3ncc(Cl)cc23)c1F
Outline: as §1

barasertib = compound: CCN(CCCOc1ccc2c(Nc3cc(CC(=O)Nc4cccc(F)c4)[nH]n3)ncnc2c1)CCOP(=O)(O)O [barasertib]
Outline: as §1

[2] = compound: CC[C@@H]1C(=O)N(C)c2cnc(Nc3ccc(C(=O)NC4CCN(C)CC4)cc3OC)nc2N1C1CCCC1
Outline: as §1

volasertib = compound: CC[C@@H]1C(=O)N(C)c2cnc(Nc3ccc(C(=O)N[C@H]4CC[C@H](N5CCN(CC6CC6)CC5)CC4)cc3OC)nc2N1C(C)C [volasertib]
Outline: as §1

[3] = compound: CCn1c(C(=O)N(C2CC2)C2CC2)cc2c3c(ncn3C)c(Nc3cc(C)n(C)n3)nc21
Outline: as §1

[4] = compound: CCn1cc(-c2ccnc3[nH]c(-c4cccc(CN(C)C)c4)cc23)c(-c2ccc(NC(=O)N(C)C)cc2)n1
Outline: as §1

[5] = compound: CN1CCC(CNc2ccc3ncc(-c4cccc(OC(F)(F)F)c4)n3n2)CC1
Outline: as §1

saracatinib = compound: CN1CCN(CCOc2cc(OC3CCOCC3)c3c(Nc4c(Cl)ccc5c4OCO5)ncnc3c2)CC1 [saracatinib]
Outline: as §1

sotrastaurin = compound: CN1CCN(c2nc(C3=C(c4c[nH]c5ccccc45)C(=O)NC3=O)c3ccccc3n2)CC1 [sotrastaurin]
Outline: as §1

Measured: log2 fold change

FADD (UniProt Q13158)
inactive: vemurafenib -0.019 | [1] -0.004 | barasertib 0.039 | [2] -0.078 | volasertib 0.028 | [3] 0.056 | [4] -0.006 | [5] 0.011 | saracatinib 0.004 | sotrastaurin -0.016

EXOC3 (UniProt O60645)
inactive: vemurafenib 0.049 | [1] 0.021 | barasertib 0.02 | [2] -0.081 | volasertib -0.086 | [3] 0.045 | [4] -0.057 | [5] -0.001 | saracatinib 0.004 | sotrastaurin 0.03

EXOSC1 (UniProt Q9Y3B2)
inactive: vemurafenib 0.001 | [1] 0.059 | barasertib -0.069 | [2] 0.022 | volasertib -0.024 | [3] 0.049 | [4] -0.01 | [5] -0.035 | saracatinib 0.034 | sotrastaurin 0.014

EWSR1 isoform 5 (UniProt Q01844)
inactive: vemurafenib 0.033 | [1] -0.023 | barasertib -0.013 | [2] 0.039 | volasertib 0.045 | [3] -0.006 | [4] -0.019 | [5] 0.021 | saracatinib -0.017 | sotrastaurin 0.037

ERO1A (UniProt Q96HE7)
inactive: vemurafenib -0.005 | [1] 0.008 | barasertib -0.034 | [2] -0.069 | volasertib -0.007 | [3] -0.024 | [4] 0.081 | [5] -0.041 | saracatinib 0.013 | sotrastaurin 0.047

FAM78A (UniProt Q5JUQ0)
inactive: vemurafenib 0.047 | [1] -0.423 | barasertib 0.124 | [2] 0.085 | volasertib 0 | [3] -0.069 | [4] -0.064 | [5] 0.046 | saracatinib -0.236 | sotrastaurin 0.03

EXOSC5 (UniProt Q9NQT4)
inactive: vemurafenib 0 | [1] -0.005 | barasertib 0.026 | [2] 0.002 | volasertib 0 | [3] -0.003 | [4] -0.018 | [5] -0.024 | saracatinib 0.01 | sotrastaurin -0.004

FAM83A (UniProt Q86UY5)
inactive: vemurafenib 0.038 | [1] -0.002 | barasertib 0.035 | [2] -0.001 | volasertib 0.003 | [3] 0.05 | [4] 0.103 | [5] 0.06 | saracatinib 0.01 | sotrastaurin -0.049

FADS3 (UniProt Q9Y5Q0)
inactive: vemurafenib 0.066 | [1] 0.149 | barasertib 0 | [2] 0.119 | volasertib -0.103 | [3] 0.023 | [5] 0.343 | saracatinib 0.152 | sotrastaurin -0.057
active: [4] -0.957

EXOC2 (UniProt Q96KP1)
inactive: vemurafenib 0.018 | [1] 0.109 | barasertib 0.041 | [2] -0.028 | volasertib -0.043 | [3] 0.031 | [4] 0.017 | [5] -0.094 | saracatinib 0.034 | sotrastaurin 0.049

F11R (UniProt Q9Y624)
inactive: vemurafenib 0.012 | [1] 0.001 | barasertib -0.016 | [2] -0.026 | volasertib 0.009 | [3] -0.01 | [4] -0.133 | [5] 0.118 | saracatinib 0.03 | sotrastaurin -0.014

ESRRA (UniProt P11474)
active: [4] 0.569
inactive: vemurafenib 0.058 | [1] 0.005 | barasertib 0.041 | [2] 0.03 | volasertib -0.075 | [3] -0.039 | [5] -0.283 | saracatinib -0.055 | sotrastaurin 0.053

EVL isoform 2 (UniProt Q9UI08)
inactive: vemurafenib 0.046 | [1] 0.016 | barasertib 0.006 | [2] 0.03 | volasertib -0.005 | [3] -0.215 | [4] -0.007 | [5] 0.041 | saracatinib 0.031 | sotrastaurin 0.003

ERICH1 (UniProt Q86X53)
inactive: vemurafenib -0.059 | [1] 0.069 | barasertib 0.063 | [2] 0.002 | volasertib -0.028 | [3] -0.016 | [4] 0.009 | [5] -0.067 | saracatinib 0.037 | sotrastaurin 0.099

ERLIN1 (UniProt O75477)
inactive: vemurafenib 0.01 | [1] 0.013 | barasertib 0.008 | [2] -0.037 | volasertib -0.029 | [3] 0.033 | [4] 1.01 | [5] -0.059 | saracatinib 0.041 | sotrastaurin -0.023

ESD (UniProt P10768)
inactive: vemurafenib 0.017 | [1] 0.034 | barasertib -0.041 | [2] -0.008 | volasertib 0.005 | [3] 0.023 | [4] 0.004 | [5] 0.014 | saracatinib -0.016 | sotrastaurin -0.062

FAM118A (UniProt Q9NWS6)
inactive: vemurafenib -0.013 | [1] 0.011 | barasertib 0.018 | [2] -0.017 | volasertib -0.009 | [3] -0.031 | [4] -0.135 | [5] 0.077 | saracatinib 0.063 | sotrastaurin 0.025

FAM210B (UniProt Q96KR6)
inactive: vemurafenib 0.125 | [1] 0.017 | barasertib 0.015 | [2] 0.047 | volasertib 0.08 | [3] -0.068 | [4] -0.088 | [5] 0.106 | saracatinib -0.02 | sotrastaurin -0.012

EZR (UniProt P15311)
inactive: vemurafenib -0.021 | [1] -0.022 | barasertib -0.022 | [2] 0.009 | volasertib 0.008 | [3] 0.003 | [4] 0.125 | [5] -0.037 | saracatinib -0.012 | sotrastaurin 0

FAM234A (UniProt Q9H0X4)
inactive: vemurafenib 0.025 | [1] -0.045 | barasertib 0.037 | [2] 0.133 | volasertib 0.04 | [3] -0.033 | [4] -0.05 | [5] 0.042 | saracatinib 0.036 | sotrastaurin -0.007

EXOC6 (UniProt Q8TAG9)
inactive: vemurafenib -0.041 | [1] 0.033 | barasertib 0.032 | [2] -0.033 | volasertib -0.047 | [3] 0.032 | [4] -0.05 | [5] -0.075 | saracatinib 0.018 | sotrastaurin 0.06

ETNK1 (UniProt Q9HBU6)
inactive: vemurafenib -0.039 | [1] 0.035 | barasertib 0.059 | [2] 0.054 | volasertib -0.014 | [3] -0.019 | [4] -0.085 | [5] 0.028 | saracatinib 0.014 | sotrastaurin 0.023

EWSR1 (UniProt H7BY36)
inactive: vemurafenib -0.035 | barasertib -0.055 | [2] 0.095 | [3] -0.046 | [4] -0.056 | [5] -0.043 | saracatinib 0.024 | sotrastaurin -0.02

FAM49B, A0A1W2PRQ0
inactive: vemurafenib 0.22 | barasertib -0.08 | [2] 0.22 | [3] 0.038

EXOC7 (UniProt Q9UPT5)
inactive: vemurafenib -0.006 | [1] 0.031 | barasertib 0.03 | [2] -0.015 | volasertib -0.069 | [3] 0.013 | [4] -0.098 | [5] 0.004 | saracatinib 0.015 | sotrastaurin 0

Retrieved one by one from the entries so far (2):
FAM118A (UniProt Q9NWS6)
inactive: vemurafenib -0.013 | [1] 0.011 | barasertib 0.018 | [2] -0.017 | volasertib -0.009 | [3] -0.031 | [4] -0.135 | [5] 0.077 | saracatinib 0.063 | sotrastaurin 0.025

FAM78A (UniProt Q5JUQ0)
inactive: vemurafenib 0.047 | [1] -0.423 | barasertib 0.124 | [2] 0.085 | volasertib 0 | [3] -0.069 | [4] -0.064 | [5] 0.046 | saracatinib -0.236 | sotrastaurin 0.03

(next part)

FAM32A (UniProt Q9Y421)
inactive: vemurafenib 0.038 | barasertib 0.065 | [2] 0.097 | [3] -0.028 | [4] -0.036 | [5] 0.123 | saracatinib 0.039 | sotrastaurin -0.012

FAM172A (UniProt Q8WUF8)
inactive: vemurafenib -0.117 | [1] -0.01 | barasertib 0.163 | [2] -0.026 | volasertib -0.035 | [3] -0.085 | saracatinib -0.017

FAIM isoform 2 (UniProt Q9NVQ4)
inactive: vemurafenib -0.023 | [1] -0.028 | barasertib 0.054 | [2] -0.103 | volasertib -0.026 | [3] -0.054 | [4] -0.085 | [5] 0.103 | saracatinib -0.207 | sotrastaurin 0.04

FAM83D (UniProt Q9H4H8)
inactive: vemurafenib -0.015 | [1] 0 | barasertib 0.074 | [2] 0.045 | volasertib -0.047 | [3] -0.01 | [4] -0.052 | [5] 0.029 | saracatinib -0.008 | sotrastaurin 0.032

F5 (UniProt P12259)
inactive: vemurafenib -0.011 | [1] -0.039 | barasertib 0.035 | [2] 0.049 | volasertib -0.011 | [3] 0.021 | [4] -0.05 | [5] -0.006 | saracatinib -0.104 | sotrastaurin -0.014

F2RL3 (UniProt Q96RI0)
inactive: vemurafenib 0.132 | [1] 0.03 | volasertib 0.055 | [3] 0.14 | [4] -0.089 | [5] 0.25 | saracatinib 0.052
